Laboratory results: PubChem BioAssay AID1259323 (Peter MacCallum Cancer Centre, 2017)
This is a random part of 715 reagents. 91 of all reagents (13%) count as active. 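Active pools lower the sustained TRPV4 phase but spare the early PAR2 peak; PAR2 agonist and dose are not stated; pools repeat across wells.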 Unmarked entries are inactive. No sequences are given here. The record does not give: the amount of reagent, the time to read-out.

Screen: 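Kinase siRNA screen linking the PAR2 receptor to the TRPV4 channel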 (primary screen)
Cells: human HEK293 cells stably carrying inducible TRPV4
Reagent: siRNA pool against human genes
Treatment: PAR2 activation; agonist identity and dose not given
Measured: 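Real-time Fura-2 calcium after PAR2 activation; early peak and later plateau each as % of mock-transfected wells on the plate, mean of two plates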
Scale: TRPV4 plateau calcium, % of mock: higher = stronger sustained TRPV4 calcium entry than mock; PAR2 peak calcium, % of mock: higher = stronger early PAR2 calcium response than mock
Hit rule: 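Active when sustained TRPV4 plateau calcium falls below 90% of mock while the early PAR2 peak remains above 79% of mock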

IP6K2 (GeneID 51447) [SID336297609]: TRPV4 plateau calcium, % of mock = 88.8 (active); PAR2 peak calcium, % of mock = 95.9
MAPK12 (GeneID 6300) [SID336297678]: TRPV4 plateau calcium, % of mock = 87.7 (active); PAR2 peak calcium, % of mock = 94.3
CDK5R1 (GeneID 8851) [SID336297508]: TRPV4 plateau calcium, % of mock = 113; PAR2 peak calcium, % of mock = 102
SBK1 (GeneID 388228) [SID336297473]: TRPV4 plateau calcium, % of mock = 118; PAR2 peak calcium, % of mock = 109
PRKAR1B (GeneID 5575) [SID336297375]: TRPV4 plateau calcium, % of mock = 104; PAR2 peak calcium, % of mock = 105
TBCK (GeneID 93627) [SID336297400]: TRPV4 plateau calcium, % of mock = 104; PAR2 peak calcium, % of mock = 97.5
SPHK2 (GeneID 56848) [SID336297571]: TRPV4 plateau calcium, % of mock = 107; PAR2 peak calcium, % of mock = 104
NUAK1 (GeneID 9891) [SID336297483]: TRPV4 plateau calcium, % of mock = 106; PAR2 peak calcium, % of mock = 101
NRBP2 (GeneID 340371) [SID336297446]: TRPV4 plateau calcium, % of mock = 116; PAR2 peak calcium, % of mock = 115
PRPS1 (GeneID 5631) [SID336297412]: TRPV4 plateau calcium, % of mock = 118; PAR2 peak calcium, % of mock = 104
MAP2K6 (GeneID 5608) [SID336297528]: TRPV4 plateau calcium, % of mock = 97.5; PAR2 peak calcium, % of mock = 98.1
BRD2 (GeneID 6046) [SID336297298]: TRPV4 plateau calcium, % of mock = 105; PAR2 peak calcium, % of mock = 100
PXK (GeneID 54899) [SID336297743]: TRPV4 plateau calcium, % of mock = 92.3; PAR2 peak calcium, % of mock = 98.9
FES (GeneID 2242) [SID336297616]: TRPV4 plateau calcium, % of mock = 94.6; PAR2 peak calcium, % of mock = 95.3
EPHA2 (GeneID 1969) [SID336297390]: TRPV4 plateau calcium, % of mock = 101; PAR2 peak calcium, % of mock = 102
MYLK2 (GeneID 85366) [SID336297161]: TRPV4 plateau calcium, % of mock = 96.6; PAR2 peak calcium, % of mock = 93.6
MARK3 (GeneID 4140) [SID336297310]: TRPV4 plateau calcium, % of mock = 112; PAR2 peak calcium, % of mock = 98.2
STK39 (GeneID 27347) [SID336297360]: TRPV4 plateau calcium, % of mock = 85.8 (active); PAR2 peak calcium, % of mock = 89.2
GRK2 (GeneID 156) [SID336297495]: TRPV4 plateau calcium, % of mock = 97.4; PAR2 peak calcium, % of mock = 86.3
EIF2AK2 (GeneID 5610) [SID336297568]: TRPV4 plateau calcium, % of mock = 94.3; PAR2 peak calcium, % of mock = 96
CDKL1 (GeneID 8814) [SID336297548]: TRPV4 plateau calcium, % of mock = 87.7 (active); PAR2 peak calcium, % of mock = 90.7
STK31 (GeneID 56164) [SID336297289]: TRPV4 plateau calcium, % of mock = 103; PAR2 peak calcium, % of mock = 102
DCLK1 (GeneID 9201) [SID336297665]: TRPV4 plateau calcium, % of mock = 91; PAR2 peak calcium, % of mock = 92.4
TEC (GeneID 7006) [SID336297503]: TRPV4 plateau calcium, % of mock = 94.4; PAR2 peak calcium, % of mock = 88.7
RIOK1 (GeneID 83732) [SID336297156]: TRPV4 plateau calcium, % of mock = 118; PAR2 peak calcium, % of mock = 109
ALK (GeneID 238) [SID336297538]: TRPV4 plateau calcium, % of mock = 106; PAR2 peak calcium, % of mock = 102
GK (GeneID 2710) [SID336297352]: TRPV4 plateau calcium, % of mock = 86.3; PAR2 peak calcium, % of mock = 71.7
TBK1 (GeneID 29110) [SID336297461]: TRPV4 plateau calcium, % of mock = 102; PAR2 peak calcium, % of mock = 100
TWF2 (GeneID 11344) [SID336297723]: TRPV4 plateau calcium, % of mock = 86.3 (active); PAR2 peak calcium, % of mock = 87.3
ACVR1 (GeneID 90) [SID336297358]: TRPV4 plateau calcium, % of mock = 88 (active); PAR2 peak calcium, % of mock = 88.4
BRSK2 (GeneID 9024) [SID336297518]: TRPV4 plateau calcium, % of mock = 87.8 (active); PAR2 peak calcium, % of mock = 90.9
MAPK14 (GeneID 1432) [SID336297460]: TRPV4 plateau calcium, % of mock = 99.3; PAR2 peak calcium, % of mock = 98.4
CALM1 (GeneID 801) [SID336297138]: TRPV4 plateau calcium, % of mock = 114; PAR2 peak calcium, % of mock = 114
PI4KA (GeneID 5297) [SID336297085]: TRPV4 plateau calcium, % of mock = 96.3; PAR2 peak calcium, % of mock = 93.3

Look-ups from above.
DCLK1 (GeneID 9201) [SID336297665], TRPV4 plateau calcium, % of mock: 91
NUAK1 (GeneID 9891) [SID336297483], PAR2 peak calcium, % of mock: 101
PI4KA (GeneID 5297) [SID336297085], TRPV4 plateau calcium, % of mock → 96.3
For “TRPV4 plateau calcium, % of mock”, CDKL1 (GeneID 8814) [SID336297548] reads 87.7 (active)
